The source of these data is the supplement of paper PMC12819154, “High-throughput peptide-centric local stability assay extends protein–ligand identification to membrane proteins, tissues and bacteria” (Nature Structural & Molecular Biology, 2025).

Chains of the proteins cited; added tags and fusions are not shown. Lines headed by an entry give the natural chain unless they say otherwise; changes in a name come on top.
UniProt Q4G0T1: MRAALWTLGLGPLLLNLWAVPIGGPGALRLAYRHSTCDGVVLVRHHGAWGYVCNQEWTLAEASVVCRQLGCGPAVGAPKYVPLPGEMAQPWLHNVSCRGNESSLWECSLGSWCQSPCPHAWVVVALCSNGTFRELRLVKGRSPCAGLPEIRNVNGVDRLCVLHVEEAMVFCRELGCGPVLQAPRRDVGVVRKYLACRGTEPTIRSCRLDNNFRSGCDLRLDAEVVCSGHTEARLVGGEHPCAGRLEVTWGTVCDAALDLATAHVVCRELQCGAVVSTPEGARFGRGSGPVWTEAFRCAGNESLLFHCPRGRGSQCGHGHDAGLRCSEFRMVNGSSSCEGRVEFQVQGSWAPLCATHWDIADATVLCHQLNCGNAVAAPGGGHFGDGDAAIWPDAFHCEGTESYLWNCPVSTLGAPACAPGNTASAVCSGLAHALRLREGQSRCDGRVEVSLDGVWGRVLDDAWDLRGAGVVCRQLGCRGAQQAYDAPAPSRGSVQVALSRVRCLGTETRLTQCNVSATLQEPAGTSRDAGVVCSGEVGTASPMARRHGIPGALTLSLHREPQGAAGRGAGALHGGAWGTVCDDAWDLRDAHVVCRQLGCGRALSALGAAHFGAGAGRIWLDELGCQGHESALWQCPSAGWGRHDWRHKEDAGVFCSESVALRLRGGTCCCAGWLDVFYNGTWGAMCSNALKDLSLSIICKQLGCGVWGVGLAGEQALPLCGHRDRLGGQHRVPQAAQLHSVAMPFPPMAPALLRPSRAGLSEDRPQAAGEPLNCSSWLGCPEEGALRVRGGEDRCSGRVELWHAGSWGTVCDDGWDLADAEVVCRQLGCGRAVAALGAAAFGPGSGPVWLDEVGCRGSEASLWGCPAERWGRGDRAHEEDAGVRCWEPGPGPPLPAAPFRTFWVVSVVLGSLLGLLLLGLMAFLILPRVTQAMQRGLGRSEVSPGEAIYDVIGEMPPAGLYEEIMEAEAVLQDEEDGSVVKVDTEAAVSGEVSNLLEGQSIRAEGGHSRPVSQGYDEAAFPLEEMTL
UniProt Q53T59: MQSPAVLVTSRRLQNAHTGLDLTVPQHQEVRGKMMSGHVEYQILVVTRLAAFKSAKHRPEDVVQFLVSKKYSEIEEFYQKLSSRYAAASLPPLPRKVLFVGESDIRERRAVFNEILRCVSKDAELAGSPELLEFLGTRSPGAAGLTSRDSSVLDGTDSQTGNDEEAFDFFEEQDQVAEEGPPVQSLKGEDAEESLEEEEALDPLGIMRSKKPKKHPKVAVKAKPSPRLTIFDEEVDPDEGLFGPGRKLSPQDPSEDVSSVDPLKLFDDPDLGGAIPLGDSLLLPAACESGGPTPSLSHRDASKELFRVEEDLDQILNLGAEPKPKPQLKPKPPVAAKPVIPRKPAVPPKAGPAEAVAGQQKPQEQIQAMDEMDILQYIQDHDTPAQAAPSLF
UniProt Q53HL2: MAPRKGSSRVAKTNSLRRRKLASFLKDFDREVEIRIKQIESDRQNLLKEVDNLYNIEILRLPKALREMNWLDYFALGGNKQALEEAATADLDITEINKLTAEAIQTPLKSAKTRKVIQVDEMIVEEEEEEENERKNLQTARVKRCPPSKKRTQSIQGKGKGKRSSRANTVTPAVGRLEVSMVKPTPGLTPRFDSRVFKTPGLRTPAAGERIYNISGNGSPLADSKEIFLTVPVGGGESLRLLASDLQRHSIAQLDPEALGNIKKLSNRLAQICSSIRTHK
UniProt Q58FG0, whole entry: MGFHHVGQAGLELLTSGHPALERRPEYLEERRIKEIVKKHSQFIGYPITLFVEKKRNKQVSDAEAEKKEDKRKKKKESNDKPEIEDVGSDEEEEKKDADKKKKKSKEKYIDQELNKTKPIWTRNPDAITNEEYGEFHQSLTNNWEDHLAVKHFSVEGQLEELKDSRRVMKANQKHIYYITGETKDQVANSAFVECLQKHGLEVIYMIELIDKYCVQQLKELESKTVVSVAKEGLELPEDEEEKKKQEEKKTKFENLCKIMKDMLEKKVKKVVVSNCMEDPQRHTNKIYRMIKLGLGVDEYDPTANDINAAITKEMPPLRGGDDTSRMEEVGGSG
UniProt Q53RE8: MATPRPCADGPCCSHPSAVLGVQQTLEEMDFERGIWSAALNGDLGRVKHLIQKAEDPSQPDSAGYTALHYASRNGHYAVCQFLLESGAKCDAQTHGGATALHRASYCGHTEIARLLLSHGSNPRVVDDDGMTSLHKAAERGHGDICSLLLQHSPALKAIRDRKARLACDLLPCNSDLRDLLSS
UniProt Q5J8M3, whole entry: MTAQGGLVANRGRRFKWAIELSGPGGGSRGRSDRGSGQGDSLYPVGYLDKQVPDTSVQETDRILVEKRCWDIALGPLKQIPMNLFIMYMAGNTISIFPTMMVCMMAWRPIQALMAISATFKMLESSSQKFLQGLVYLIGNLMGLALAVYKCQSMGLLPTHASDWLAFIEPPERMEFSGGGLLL
UniProt Q5JVG2: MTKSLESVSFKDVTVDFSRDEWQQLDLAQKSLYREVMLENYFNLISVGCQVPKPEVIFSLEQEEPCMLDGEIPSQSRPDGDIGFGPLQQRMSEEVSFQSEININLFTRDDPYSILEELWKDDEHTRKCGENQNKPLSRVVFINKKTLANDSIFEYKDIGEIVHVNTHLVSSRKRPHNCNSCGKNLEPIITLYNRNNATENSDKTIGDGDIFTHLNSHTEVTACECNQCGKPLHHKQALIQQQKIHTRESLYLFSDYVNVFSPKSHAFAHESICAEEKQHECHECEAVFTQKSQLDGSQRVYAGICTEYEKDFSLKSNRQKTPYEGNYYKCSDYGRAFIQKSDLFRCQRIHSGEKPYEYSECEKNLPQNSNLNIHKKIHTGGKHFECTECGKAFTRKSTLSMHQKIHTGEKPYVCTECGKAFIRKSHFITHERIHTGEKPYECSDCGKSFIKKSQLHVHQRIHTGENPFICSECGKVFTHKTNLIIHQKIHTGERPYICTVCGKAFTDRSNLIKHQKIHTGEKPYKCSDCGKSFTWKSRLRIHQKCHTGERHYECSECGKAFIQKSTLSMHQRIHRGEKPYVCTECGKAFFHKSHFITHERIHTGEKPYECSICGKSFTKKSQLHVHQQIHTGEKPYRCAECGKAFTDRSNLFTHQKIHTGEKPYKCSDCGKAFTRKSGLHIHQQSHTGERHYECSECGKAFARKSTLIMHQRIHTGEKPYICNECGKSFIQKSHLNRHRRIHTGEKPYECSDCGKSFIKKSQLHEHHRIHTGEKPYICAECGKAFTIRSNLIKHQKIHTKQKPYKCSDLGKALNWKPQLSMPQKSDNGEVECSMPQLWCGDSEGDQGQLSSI
UniProt Q5JVS0: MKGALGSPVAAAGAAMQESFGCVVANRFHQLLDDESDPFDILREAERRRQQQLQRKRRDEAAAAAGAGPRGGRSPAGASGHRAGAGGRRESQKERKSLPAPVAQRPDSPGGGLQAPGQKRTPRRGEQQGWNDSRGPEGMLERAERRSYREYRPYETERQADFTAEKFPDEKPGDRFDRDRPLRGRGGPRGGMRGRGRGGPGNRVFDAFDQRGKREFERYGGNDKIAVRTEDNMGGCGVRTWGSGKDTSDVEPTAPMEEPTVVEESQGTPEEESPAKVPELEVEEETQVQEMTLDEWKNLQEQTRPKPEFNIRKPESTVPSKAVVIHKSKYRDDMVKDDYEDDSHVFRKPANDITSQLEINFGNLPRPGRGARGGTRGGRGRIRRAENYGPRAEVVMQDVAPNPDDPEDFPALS
UniProt Q53HV7: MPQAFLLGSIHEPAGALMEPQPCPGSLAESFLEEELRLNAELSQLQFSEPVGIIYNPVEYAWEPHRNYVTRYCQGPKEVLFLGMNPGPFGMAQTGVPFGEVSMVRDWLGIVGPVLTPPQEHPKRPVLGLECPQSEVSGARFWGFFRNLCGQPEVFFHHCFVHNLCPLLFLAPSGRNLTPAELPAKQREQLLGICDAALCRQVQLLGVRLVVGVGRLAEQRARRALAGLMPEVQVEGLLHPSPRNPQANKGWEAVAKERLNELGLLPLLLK
UniProt Q53HC5: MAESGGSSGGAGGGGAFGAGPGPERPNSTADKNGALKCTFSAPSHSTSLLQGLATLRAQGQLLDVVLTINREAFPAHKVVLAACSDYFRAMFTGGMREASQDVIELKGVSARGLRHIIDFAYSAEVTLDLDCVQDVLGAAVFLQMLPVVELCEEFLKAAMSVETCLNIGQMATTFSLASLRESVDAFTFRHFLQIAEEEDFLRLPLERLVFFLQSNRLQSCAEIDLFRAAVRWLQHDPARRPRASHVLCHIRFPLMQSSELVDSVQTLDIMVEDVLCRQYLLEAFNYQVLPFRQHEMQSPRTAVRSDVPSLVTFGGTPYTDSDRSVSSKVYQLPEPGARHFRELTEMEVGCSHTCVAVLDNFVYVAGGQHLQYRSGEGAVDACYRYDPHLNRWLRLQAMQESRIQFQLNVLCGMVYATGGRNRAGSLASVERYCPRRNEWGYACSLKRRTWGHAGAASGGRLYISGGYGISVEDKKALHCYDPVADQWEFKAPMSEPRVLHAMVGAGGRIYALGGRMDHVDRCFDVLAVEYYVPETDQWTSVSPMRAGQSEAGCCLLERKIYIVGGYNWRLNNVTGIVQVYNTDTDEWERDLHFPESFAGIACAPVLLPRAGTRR
UniProt Q5TC12: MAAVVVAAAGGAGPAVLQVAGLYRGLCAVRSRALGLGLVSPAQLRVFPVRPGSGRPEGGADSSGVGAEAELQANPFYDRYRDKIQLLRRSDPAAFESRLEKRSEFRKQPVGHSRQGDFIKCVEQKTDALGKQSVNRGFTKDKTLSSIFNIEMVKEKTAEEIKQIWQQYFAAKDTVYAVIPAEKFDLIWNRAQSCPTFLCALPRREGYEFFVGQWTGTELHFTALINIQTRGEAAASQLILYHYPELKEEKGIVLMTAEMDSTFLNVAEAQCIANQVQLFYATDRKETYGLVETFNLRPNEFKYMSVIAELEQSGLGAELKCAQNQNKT
UniProt Q53H80, whole entry: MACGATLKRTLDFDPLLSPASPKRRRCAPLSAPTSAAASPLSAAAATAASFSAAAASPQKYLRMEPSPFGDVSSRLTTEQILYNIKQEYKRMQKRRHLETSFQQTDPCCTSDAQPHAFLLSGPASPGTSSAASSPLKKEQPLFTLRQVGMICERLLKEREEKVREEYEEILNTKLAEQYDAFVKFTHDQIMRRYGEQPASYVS
UniProt Q495B1: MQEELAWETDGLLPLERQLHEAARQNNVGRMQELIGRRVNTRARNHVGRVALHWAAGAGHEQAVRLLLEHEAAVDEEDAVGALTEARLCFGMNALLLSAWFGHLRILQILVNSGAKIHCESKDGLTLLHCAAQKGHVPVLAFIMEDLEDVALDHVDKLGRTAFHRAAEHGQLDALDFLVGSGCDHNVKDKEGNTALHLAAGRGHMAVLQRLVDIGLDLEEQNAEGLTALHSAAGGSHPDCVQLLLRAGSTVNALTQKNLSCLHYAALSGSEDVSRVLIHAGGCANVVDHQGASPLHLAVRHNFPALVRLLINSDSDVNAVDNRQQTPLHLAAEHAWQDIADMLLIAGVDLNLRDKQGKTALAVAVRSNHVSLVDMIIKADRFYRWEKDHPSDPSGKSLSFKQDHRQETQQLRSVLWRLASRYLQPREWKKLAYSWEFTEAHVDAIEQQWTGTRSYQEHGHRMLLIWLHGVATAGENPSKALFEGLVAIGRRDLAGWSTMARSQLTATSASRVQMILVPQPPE
UniProt Q4VC31: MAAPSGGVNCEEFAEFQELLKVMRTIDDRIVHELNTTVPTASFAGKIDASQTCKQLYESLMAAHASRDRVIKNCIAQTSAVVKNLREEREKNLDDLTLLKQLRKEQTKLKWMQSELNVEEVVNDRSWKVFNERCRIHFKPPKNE
UniProt Q5SZL2: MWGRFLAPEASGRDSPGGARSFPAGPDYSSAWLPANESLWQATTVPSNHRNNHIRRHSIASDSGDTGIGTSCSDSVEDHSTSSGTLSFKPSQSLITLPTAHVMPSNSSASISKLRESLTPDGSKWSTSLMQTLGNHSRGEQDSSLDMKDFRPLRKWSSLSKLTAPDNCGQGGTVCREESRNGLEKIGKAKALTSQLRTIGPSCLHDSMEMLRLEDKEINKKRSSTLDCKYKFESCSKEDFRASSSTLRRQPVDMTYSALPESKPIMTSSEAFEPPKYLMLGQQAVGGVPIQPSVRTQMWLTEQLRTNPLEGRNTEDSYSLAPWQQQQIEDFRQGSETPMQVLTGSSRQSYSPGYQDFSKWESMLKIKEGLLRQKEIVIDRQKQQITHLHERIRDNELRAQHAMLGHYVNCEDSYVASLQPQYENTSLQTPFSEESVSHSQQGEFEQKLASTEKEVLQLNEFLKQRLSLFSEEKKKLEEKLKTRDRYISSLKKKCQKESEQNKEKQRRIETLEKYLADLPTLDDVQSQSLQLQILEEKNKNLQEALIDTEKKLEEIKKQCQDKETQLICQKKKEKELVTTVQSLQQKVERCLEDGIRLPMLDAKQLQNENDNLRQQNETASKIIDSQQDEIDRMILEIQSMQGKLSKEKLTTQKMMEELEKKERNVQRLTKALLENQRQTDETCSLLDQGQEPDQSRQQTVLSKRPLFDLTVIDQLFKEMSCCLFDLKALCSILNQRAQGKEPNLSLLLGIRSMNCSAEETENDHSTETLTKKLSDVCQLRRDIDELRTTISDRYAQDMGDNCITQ

The other results are listed elsewhere or left out. Small differences around the control level are noise.

Compound in this test: Cc1nc(Nc2ncc(C(=O)Nc3c(C)cccc3Cl)s2)cc(N2CCN(CCO)CC2)n1 [dasatinib]
As to the kind of experiment: log2 fold change of tryptic peptide abundance, ligand vs vehicle (limited proteolysis) (log2 ratio); higher = more trypsin-susceptible (destabilized). As to conditions: ligand concentration: 5 uM; sample: K562 cleared lysate.
For the target “IQSEC2 (peptide sequence: GVDNGEDIPR, peptide start residue: 917) (UniProt Q5JU85)”, the log2 fold change came out at 0.587.
With “PDSS1 (peptide sequence: FSLPGDVDR, peptide start residue: 354) (UniProt Q5T2R2)”, the log2 fold change is -0.293.
With “CAMSAP1 (peptide sequence: FSTFSASK, peptide start residue: 172) (UniProt Q5T5Y3)” the figure was -0.564; with “NUP188 (peptide sequence: DGVCVLGLHLAK, peptide start residue: 1280) (UniProt Q5SRE5)”, -0.352; with “RRP12 (peptide sequence: MKLQGQFK, peptide start residue: 1267) (UniProt Q5JTH9)”, -0.276.
With “NA (peptide sequence: GAQQAYDAPAPSR, peptide start residue: 479) (UniProt Q4G0T1)” the figure was -0.0675.
For “UniProt Q5TB30 (peptide sequence: KLQLLMR, peptide start residue: 326)” the value was -0.229.
For the target “PHF19 (peptide sequence: DSYGATSHLPNKGALAK, peptide start residue: 12) (UniProt Q5T6S3)”, the log2 fold change came to 0.13.
With “HS1BP3 (peptide sequence: YSEIEEFYQK, peptide start residue: 71) (UniProt Q53T59)”, the log2 fold change was -0.155.
With “COX19 (peptide sequence: LGFGDLTSGK, peptide start residue: 76) (UniProt Q49B96)” the figure was 0.0846.
With “CDCA8 (peptide sequence: LLASDLQR, peptide start residue: 241) (UniProt Q53HL2)” the figure was -0.422.
For “UniProt Q58FG0 (peptide sequence: HSQFIGYPITLFVEK, peptide start residue: 210)” the value was -0.142; for “ANKRD39 (peptide sequence: NGHYAVCQFLLESGAK, peptide start residue: 74) (UniProt Q53RE8)”, 0.125; for “UniProt Q49A88 (peptide sequence: DTSDLEQNWSLQDHYR, peptide start residue: 185)”, -0.376.
As to “UniProt Q5J8M3 (peptide sequence: WAIELSGPGGGSR, peptide start residue: 17)”, the log2 fold change is 0.119.
Regarding “UniProt Q5JVG2 (peptide sequence: IHTGEKPYECSDCGK, peptide start residue: 243)”, the log2 fold change came to 0.818.
For “LYRM7 (peptide sequence: KIEELMK, peptide start residue: 51) (UniProt Q5U5X0)” the value was -0.0934; for “HABP4 (peptide sequence: KSLPAPVAQRPDSPGGGLQAPGQK, peptide start residue: 96) (UniProt Q5JVS0)”, 0.473.
For the target “SAMD9 (peptide sequence: KTAIEDSIQTSK, peptide start residue: 76) (UniProt Q5K651)”, the log2 fold change came out at 0.48.
As for “SMUG1 (peptide sequence: QVQLLGVR, peptide start residue: 201) (UniProt Q53HV7)”, the log2 fold change is -0.183.
With “UniProt Q53F19 (peptide sequence: NVALDRDMMKK, peptide start residue: 108)” the figure was 0.279.
For the target “FAM133B (peptide sequence: LLSGSESSSK, peptide start residue: 80) (UniProt Q5BKY9)”, the log2 fold change amounted to 0.00882.
On to “HECTD3 (peptide sequence: QQQLFGVDYRPVLR, peptide start residue: 164) (UniProt Q5T447)”, for which the log2 fold change is 0.0654.
For “KLHL26 (peptide sequence: ALHCYDPVADQWEFKAPMSEPR, peptide start residue: 477) (UniProt Q53HC5)” the value was -0.326.
Turning to “ATPAF1 (peptide sequence: SDPAAFESR, peptide start residue: 90) (UniProt Q5TC12)”, the log2 fold change was 0.13.
With “UniProt Q5TAQ9 (peptide sequence: LQHGLEGHTGCVNTLHFNQR, peptide start residue: 185)” the figure was -1.02; with “DDI2 (peptide sequence: IDFSSIAVPGTSSPR, peptide start residue: 94) (UniProt Q5TDH0)”, 0.392; with “AKIRIN2 (peptide sequence: MEPSPFGDVSSR, peptide start residue: 64) (UniProt Q53H80)”, -0.195.
With “TPRG1L (peptide sequence: QTLWPLSIHDPTRR, peptide start residue: 44) (UniProt Q5T0D9)” the figure was -0.076; with “FAM76B (peptide sequence: SLGSSHSNSSSSSLTEKDQHHPK, peptide start residue: 148) (UniProt Q5HYJ3)”, -1.34; with “UniProt Q495B1 (peptide sequence: SQLTATSASR, peptide start residue: 502)”, 0.109.
For “CCDC58 (peptide sequence: VIKNCIAQTSAVVK, peptide start residue: 70) (UniProt Q4VC31)” the value was 0.167.
Turning to “RABGAP1L (peptide sequence: WHSNLGARPK, peptide start residue: 520) (UniProt Q5R372)”, the log2 fold change is -0.444.
Consider “CRTC2 (peptide sequence: KLSSSSSRPR, peptide start residue: 234) (UniProt Q53ET0)”, for which the log2 fold change is -1.21.
As to “FILIP1L (peptide sequence: RISDPQVFSK, peptide start residue: 789) (UniProt Q4L180)”, the log2 fold change was -0.657.
With “CEP85L (peptide sequence: AQGKEPNLSLLLGIR, peptide start residue: 737) (UniProt Q5SZL2)” the figure was -0.215; with “FUT11 (peptide sequence: HIPVDSYGKCLQNR, peptide start residue: 234) (UniProt Q495W5)”, -0.372.
